Laboratory results taken from patent publication US12048306B1, “1,3-bis(naphthalen-1-yloxy)propan-2-one as an eco-friendly insecticidal agent against Spodoptera littoralis (boisd.)” (priority 2023, dated 2024).

Tested on: Spodoptera littoralis
Assay: Insecticidal leaf dip bioassay on S. littoralis larvae
Conditions: 72 hours of treatment, slope of probit (LDP-line) mortality regression

SMILES	Slope (2nd instar larvae)	Slope (4th instar larvae)
O=C(COc1cccc2ccccc12)COc1cccc2ccccc12 [III, 1,3-bis(naphthalen-1-yloxy)propan-2-one]	0.919 ± 0.265	0.978 ± 0.256
CCOC(=O)NCCOc1ccc(Oc2ccccc2)cc1 [Fenoxycarb, fenoxycarb, reference compound]	0.238 ± 0.082	0.681 ± 0.251
